# Laboratory results reported in the supplement of paper PMC12819154, “High-throughput peptide-centric local stability assay extends protein–ligand identification to membrane proteins, tissues and bacteria” (Nature Structural & Molecular Biology, 2025).
# This is one part of the list. Most values lie at the level of the controls, where differences are scatter.
# Compound: CN[C@@H]1C[C@H]2O[C@@](C)([C@@H]1OC)n1c3ccccc3c3c4c(c5c6ccccc6n2c5c31)C(=O)NC4 [staurosporine]
# Assay: log2 fold change of pooled soluble protein (PISA), ligand vs vehicle (log2 ratio); higher = more thermally stabilized
# Settings: ligand concentration: 20 uM; assay format: PISA pool 52.9/55.5/58.6 C
row,Target,log2 fold change of pooled soluble protein
1,UniProt P11438,0.0507
2,UniProt P28230,0.0129
3,UniProt P27659,-0.112
4,UniProt P05977,-0.614
5,UniProt P21619,0.0565
6,UniProt P10922,-0.0416
7,UniProt P15306,0.351
8,UniProt P27661,-0.0495
9,UniProt P16330,-0.0604
10,UniProt P28063,-0.179
11,UniProt P19258,-0.403
12,UniProt P20060,0.0472
13,UniProt P27612,0.0833
14,UniProt P05063,0.156
15,UniProt P26443,-0.0879
16,UniProt P03987,-0.104
17,UniProt P01887,-0.114
18,UniProt P09411,-0.0975
19,UniProt P08003,-0.0965

row,Target,log2 fold change of pooled soluble protein
1,UniProt P23249,-0.0364
2,UniProt P07724,-0.00012
3,UniProt P08030,0.08
4,UniProt P01899,0.0524
5,UniProt P27773,0.00123
6,UniProt P05784,-0.327
7,UniProt P05202,0.00508
8,UniProt P15116,0.0175
9,UniProt P16125,-0.0128
10,UniProt P11609,0.103
11,UniProt P14206,-0.0487
12,UniProt P05208,-0.282
13,UniProt P0CG14,-0.06
14,UniProt P0DOV2,0.0169
15,UniProt P12382,0.0387
16,UniProt P20491,-0.0119
17,UniProt P11859,-0.0928
18,UniProt P13516,-0.0123

# An excerpt from the list above:
row,Target,log2 fold change of pooled soluble protein
17,UniProt P11859,-0.0928
18,UniProt P13516,-0.0123
